{"source": "patent US20050112064A1", "about": "(priority 2003, published 2005)", "test": "peptide made by a vendor (Fmoc solid-phase peptide synthesis)", "details": "whole synthesis, HPLC", "note": "Plain letter strings leave the end groups untold."}
{"sequence": "TERRRQQLDKDGDGTIDEREIKIWFQNKRAKIK", "values": [{"measurement": "final purity (method not given)", "value": ">95", "unit": "%"}]}
